Measured values taken from publication PMC11937278.
No constants are given. Whether binding was seen depends on the method and setting. Binding seen in cells or lysates may run through a third protein. Some results given as binding are weak or reduced against the parent protein; the word gives no strength.

Protein sequences, listed by entry. Tags and fused reporters are not part of them. Residues count along the entry.
UniProt Q15904, residues 42-470: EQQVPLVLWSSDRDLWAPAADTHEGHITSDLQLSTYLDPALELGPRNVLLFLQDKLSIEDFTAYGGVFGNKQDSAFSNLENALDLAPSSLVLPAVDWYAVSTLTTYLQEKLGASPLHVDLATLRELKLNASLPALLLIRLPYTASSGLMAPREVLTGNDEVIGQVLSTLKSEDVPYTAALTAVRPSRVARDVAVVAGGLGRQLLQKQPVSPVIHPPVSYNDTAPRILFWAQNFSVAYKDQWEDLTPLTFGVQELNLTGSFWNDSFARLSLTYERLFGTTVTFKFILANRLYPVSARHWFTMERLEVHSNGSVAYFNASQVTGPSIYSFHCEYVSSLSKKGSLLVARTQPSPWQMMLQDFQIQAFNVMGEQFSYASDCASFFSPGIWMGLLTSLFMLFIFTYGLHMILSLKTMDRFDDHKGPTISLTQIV
UniProt O75787, residues 17-350: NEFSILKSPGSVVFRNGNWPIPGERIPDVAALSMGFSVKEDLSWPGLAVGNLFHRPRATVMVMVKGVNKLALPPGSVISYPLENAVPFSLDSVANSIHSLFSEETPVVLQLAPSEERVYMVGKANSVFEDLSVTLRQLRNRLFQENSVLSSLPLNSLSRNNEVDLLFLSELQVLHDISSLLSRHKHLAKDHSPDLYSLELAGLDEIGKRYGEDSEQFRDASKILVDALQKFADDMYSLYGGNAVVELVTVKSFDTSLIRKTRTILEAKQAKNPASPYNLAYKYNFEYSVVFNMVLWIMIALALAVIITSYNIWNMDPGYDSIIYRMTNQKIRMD
UniProt P61421: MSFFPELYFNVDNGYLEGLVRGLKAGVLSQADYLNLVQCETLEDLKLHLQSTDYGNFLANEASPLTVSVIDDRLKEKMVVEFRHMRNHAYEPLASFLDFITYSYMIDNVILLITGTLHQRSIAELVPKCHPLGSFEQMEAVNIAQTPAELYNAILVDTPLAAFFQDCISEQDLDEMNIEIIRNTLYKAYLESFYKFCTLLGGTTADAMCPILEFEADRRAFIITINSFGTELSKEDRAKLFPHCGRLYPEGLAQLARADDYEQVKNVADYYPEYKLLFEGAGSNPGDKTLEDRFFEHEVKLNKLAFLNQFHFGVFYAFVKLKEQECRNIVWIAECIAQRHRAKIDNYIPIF
UniProt P51149: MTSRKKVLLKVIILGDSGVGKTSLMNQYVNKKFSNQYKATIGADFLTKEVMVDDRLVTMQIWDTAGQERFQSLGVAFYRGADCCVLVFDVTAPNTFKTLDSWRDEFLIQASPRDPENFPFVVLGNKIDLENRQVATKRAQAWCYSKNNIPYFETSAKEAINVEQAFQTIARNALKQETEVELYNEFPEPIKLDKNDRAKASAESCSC
UniProt P21281: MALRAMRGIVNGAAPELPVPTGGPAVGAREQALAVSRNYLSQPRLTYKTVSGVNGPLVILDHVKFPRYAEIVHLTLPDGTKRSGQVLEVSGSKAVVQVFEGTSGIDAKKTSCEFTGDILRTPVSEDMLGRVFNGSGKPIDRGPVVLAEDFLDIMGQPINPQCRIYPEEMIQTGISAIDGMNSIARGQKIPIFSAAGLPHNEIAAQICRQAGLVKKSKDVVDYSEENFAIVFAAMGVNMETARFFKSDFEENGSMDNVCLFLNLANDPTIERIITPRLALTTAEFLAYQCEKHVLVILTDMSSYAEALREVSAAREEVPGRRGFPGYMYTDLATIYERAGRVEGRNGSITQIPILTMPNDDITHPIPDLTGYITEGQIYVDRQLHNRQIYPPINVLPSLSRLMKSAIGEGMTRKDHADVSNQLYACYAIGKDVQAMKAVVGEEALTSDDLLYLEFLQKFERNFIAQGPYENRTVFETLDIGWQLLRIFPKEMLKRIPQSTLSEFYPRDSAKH

Columns and labels:
Flag-ATP6AP1 (human) = Flag-ATP6AP1 (human) (UniProt Q15904); test: co-IP; HEK-293T cells transfected with HA-Rab7 and Flag-ATP6AP1 or Flag-ATP6AP2 plasmids for 48 h
Flag-ATP6AP2 = Flag-ATP6AP2 (UniProt O75787); test: as above
[1] = biological target: ATP6V0D1 (human (endogenous in HEK-293T and MCF-7)) (UniProt P61421); test: co-IP; MCF-7 cells infected with LV-sh-Con or LV-sh-ATP6AP1; ATP6V0D1-ATP6V1B2 interaction
[2] = biological target: ATP6V0D1 (human (endogenous in HEK-293T and MCF-7)) (UniProt P61421); test: co-IP; HEK-293T cells transfected with Flag-ATP6AP1 plasmids; ATP6V0D1-ATP6V1B2 interaction

Question: What does the source list for HA-Rab7 (from UniProt P51149 1-207)?
Answer: binding (Flag-ATP6AP1 (human)): binds; binding (Flag-ATP6AP2): no binding

Question: How did the binding [1] turn out when ATP6V1B2 (from UniProt P21281 1-511) was run?
Answer: binds

Question: And the binding [2]?
Answer: binds
